Assay [1] deals with CSN7A (COP9 signalosome subunit 7A), endogenous (human (endogenous in LiSa‐2)) (UniProt Q9UBW8). In words: co-IP; endogenous CSN complexes immunoprecipitated from LiSa‐2 cell lysates with specific anti‐CSN7A or anti‐CSN7B antibodies (Santa Cruz); western blotting of the precipitates.
The next assay has as its target Flag‐CSN7A (human) (UniProt Q9UBW8). In words: pull-down; Flag‐pulldown: lysates of Flag‐CSN7A‐LiSa‐2 or Flag‐CSN7B‐LiSa‐2 cells on an ANTI‐FLAG M2 affinity column, washed with 20 column volumes of 1× TBS (50 mM Tris‐HCl, pH 7.4, 150 mM NaCl, 1 mM EDTA), eluted with Flag peptide (100 μg/mL); western blotting of the eluate.

No constants are given. Whether binding was seen depends on the method and setting. Binding seen in cells or lysates may run through a third protein. A result given as binding can be weak or reduced; the word gives no strength. For some assays here: Where a sequence is shown, tags or fusion partners need not be part of it.

Turning to “F‐box protein β‐TrCP (human (endogenous in LiSa‐2))”, the binding entry (in assay [1]; with Flag‐CSN7A (human)) was “binds” in each case.
